Test results taken from patent US11542277B2, “Nitrated hydrocarbons, derivatives, and processes for their manufacture” (Angus Chemical Company, priority 2008, dated 2023).

Test: DSC evaluation of oxazolidine hardeners in PF novolac resin formulations (curing onset/peak, heat of curing, Tg on re-scan)
Conditions: for Onset, curing event 1 (Onset/Peak 1) / Peak, curing event 1 (Onset/Peak 1): DSC 25-250 C at 10 C/minute, nitrogen; for Tg after cure: re-scan

c1ccc(C23COCN2COC3)cc1 [A]
Onset, curing event 1 (Onset/Peak 1) (PHR 48): 58.1 | Peak, curing event 1 (Onset/Peak 1) (PHR 48): 96.5 | Heat of curing, event 1 (PHR 48): (28.8) J/g | Heat of curing, event 2 (PHR 48): (161.2) J/g | Observations After Cure (re-scan) (PHR 48): No exotherm, | Onset, curing event 2 (Onset/Peak 2) (PHR 48): 202 | Peak, curing event 2 (Onset/Peak 2) (PHR 48): 224.1 | Tg after cure (PHR 48): Tg = 110 C.

C1CCC2(CC1)COCN2 [B]
Onset, curing event 1 (Onset/Peak 1) (PHR 72): 55 | Peak, curing event 1 (Onset/Peak 1) (PHR 72): 193.5 | Heat of curing, event 1 (PHR 72): (129.2) J/g | Observations After Cure (re-scan) (PHR 72): No exotherm, | Onset/Peak 2 (Heat J/g), second curing event (PHR 72): None | Tg after cure (PHR 72): Tg = 140 C.

CCCC1(CC)COCN1 (stereo not shown) [C]
Onset, curing event 1 (Onset/Peak 1) (PHR 72): 161.4 | Peak, curing event 1 (Onset/Peak 1) (PHR 72): 192.3 | Heat of curing, event 1 (PHR 72): (47.2) J/g | Observations After Cure (re-scan) (PHR 72): No exotherm, | Onset/Peak 2 (Heat J/g), second curing event (PHR 72): None | Tg after cure (PHR 72): Tg = 38 C.

CCCCC1(CC)COCN1 (stereo not shown) [D]
Onset, curing event 1 (Onset/Peak 1) (PHR 76): 62.3 | Peak, curing event 1 (Onset/Peak 1) (PHR 76): 105.5 | Heat of curing, event 1 (PHR 76): (11.0) J/g | Heat of curing, event 2 (PHR 76): (65.4) J/g | Observations After Cure (re-scan) (PHR 76): No exotherm, | Onset, curing event 2 (Onset/Peak 2) (PHR 76): 163.3/ | Peak, curing event 2 (Onset/Peak 2) (PHR 76): 184.9 | Tg after cure (PHR 76): Tg = 58 C.

CCC12COCN1COC2 [ZE]
Onset, curing event 1 (Onset/Peak 1) (PHR 33.3 (Baseline 1)): 166 | Peak, curing event 1 (Onset/Peak 1) (PHR 33.3 (Baseline 1)): 194 | Onset, curing event 1 (Onset/Peak 1) (PHR 44.2 (Baseline 2)): 171 | Peak, curing event 1 (Onset/Peak 1) (PHR 44.2 (Baseline 2)): 198 | Heat of curing, event 1 (PHR 33.3 (Baseline 1)): (264) J/g | Observations After Cure (re-scan) (PHR 33.3 (Baseline 1)): No exotherm, | Onset/Peak 2 (Heat J/g), second curing event (PHR 33.3 (Baseline 1)): None | Heat of curing, event 1 (PHR 44.2 (Baseline 2)): (244 J/g | Observations After Cure (re-scan) (PHR 44.2 (Baseline 2)): No exotherm, | Onset/Peak 2 (Heat J/g), second curing event (PHR 44.2 (Baseline 2)): None | Tg after cure (PHR 33.3 (Baseline 1)): Tg > 200 C. | Tg after cure (PHR 44.2 (Baseline 2)): Tg > 200 C.
